# According to article PMC10891341:
# Results are given in words; binding and its absence hold for the method and conditions named. Binding seen in cells or lysates may run through a third protein. A yes stands for co-enrichment or nearness to the bait. Other partners may have been found. Tags and fused reporters may be left off the sequences shown.
# T1: NOP14 tagged with S-FLAG-SBP (SFB) (human) (UniProt P78316)
# T1 sequence: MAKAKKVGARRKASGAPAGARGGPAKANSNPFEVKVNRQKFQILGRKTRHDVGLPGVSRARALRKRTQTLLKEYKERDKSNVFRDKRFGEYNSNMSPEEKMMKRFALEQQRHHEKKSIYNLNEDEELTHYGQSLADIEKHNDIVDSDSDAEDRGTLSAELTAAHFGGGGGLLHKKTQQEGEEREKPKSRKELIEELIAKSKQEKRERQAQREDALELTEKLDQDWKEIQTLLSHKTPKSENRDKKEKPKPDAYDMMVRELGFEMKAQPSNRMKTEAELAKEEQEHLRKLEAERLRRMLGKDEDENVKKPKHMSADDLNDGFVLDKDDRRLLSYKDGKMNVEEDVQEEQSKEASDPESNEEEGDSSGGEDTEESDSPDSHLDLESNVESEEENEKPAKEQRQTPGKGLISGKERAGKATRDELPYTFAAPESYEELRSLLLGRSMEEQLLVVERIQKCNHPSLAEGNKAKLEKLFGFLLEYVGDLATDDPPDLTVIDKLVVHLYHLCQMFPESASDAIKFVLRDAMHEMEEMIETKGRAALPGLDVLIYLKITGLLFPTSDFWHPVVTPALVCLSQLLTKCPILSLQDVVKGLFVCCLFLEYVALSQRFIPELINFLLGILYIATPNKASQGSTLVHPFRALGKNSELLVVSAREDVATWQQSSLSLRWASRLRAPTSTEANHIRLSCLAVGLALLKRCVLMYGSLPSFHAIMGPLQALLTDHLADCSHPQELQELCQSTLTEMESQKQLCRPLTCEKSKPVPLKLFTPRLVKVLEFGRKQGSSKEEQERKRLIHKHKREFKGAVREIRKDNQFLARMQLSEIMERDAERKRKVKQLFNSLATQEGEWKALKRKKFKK
# Target: T1, NOP14 tagged with S-FLAG-SBP (SFB) (human)
# Experiment: affinity purification with mass spectrometry; tandem affinity purification (two rounds) of SFB-tagged NOP14 from stably expressing 293T cells; LC-MS/MS
row,binding,Binder
1,binds,"poly(A)-specific ribonuclease (PARN) (protein, UniProt O95453 1-639) MEIIRSNFKSNLHKVYQAIEEADFFAIDGEFSGISDGPSVSALTNGFDTPEERYQKLKKHSMDFLLFQFGLCTFKYDYTDSKYITKSFNFYVFPKPFNRSSPDVKFVCQSSSIDFLASQGFDFNKVFRNGIPYLNQEEERQLREQYDEKRSQANGAGALSYVSPNTSKCPVTIPEDQKKFIDQVVEKIEDLLQSEENKNLDLEPCTGFQRKLIYQTLSWKYPKGIHVETLETEKKERYIVISKVDEEERKRREQQKHAKEQEELNDAVGFSRVIHAIANSGKLVIGHNMLLDVMHTVHQFYCPLPADLSEFKEMTTCVFPRLLDTKLMASTQPFKDIINNTSLAELEKRLKETPFNPPKVESAEGFPSYDTASEQLHEAGYDAYITGLCFISMANYLGSFLSPPKIHVSARSKLIEPFFNKLFLMRVMDIPYLNLEGPDLQPKRDHVLHVTFPKEWKTSDLYQLFSAFGNIQISWIDDTSAFVSLSQPEQVKIAVNTSKYAESYRIQTYAEYMGRKQEEKQIKRKWTEDSWKEADSKRLNPQCIPYTLQNHYYRNNSFTAPSTVGKRNLSPSQEEAGLEDGVSGEISDTELEQTDSCAEPLSEGRKKAKKLKRMKKELSPAGSISKNSPATLFEVPDTW"
2,binds,"ribosomal RNA processing 12 homolog (RRP12) (protein, UniProt Q5JTH9 1-1297) MGRSGKLPSGVSAKLKRWKKGHSSDSNPAICRHRQAARSRFFSRPSGRSDLTVDAVKLHNELQSGSLRLGKSEAPETPMEEEAELVLTEKSSGTFLSGLSDCTNVTFSKVQRFWESNSAAHKEICAVLAAVTEVIRSQGGKETETEYFAALMTTMEAVESPESLAAVAYLLNLVLKRVPSPVLIKKFSDTSKAFMDIMSAQASSGSTSVLRWVLSCLATLLRKQDLEAWGYPVTLQVYHGLLSFTVHPKPKIRKAAQHGVCSVLKGSEFMFEKAPAHHPAAISTAKFCIQEIEKSGGSKEATTTLHMLTLLKDLLPCFPEGLVKSCSETLLRVMTLSHVLVTACAMQAFHSLFHARPGLSTLSAELNAQIITALYDYVPSENDLQPLLAWLKVMEKAHINLVRLQWDLGLGHLPRFFGTAVTCLLSPHSQVLTAATQSLKEILKECVAPHMADIGSVTSSASGPAQSVAKMFRAVEEGLTYKFHAAWSSVLQLLCVFFEACGRQAHPVMRKCLQSLCDLRLSPHFPHTAALDQAVGAAVTSMGPEVVLQAVPLEIDGSEETLDFPRSWLLPVIRDHVQETRLGFFTTYFLPLANTLKSKAMDLAQAGSTVESKIYDTLQWQMWTLLPGFCTRPTDVAISFKGLARTLGMAISERPDLRVTVCQALRTLITKGCQAEADRAEVSRFAKNFLPILFNLYGQPVAAGDTPAPRRAVLETIRTYLTITDTQLVNSLLEKASEKVLDPASSDFTRLSVLDLVVALAPCADEAAISKLYSTIRPYLESKAHGVQKKAYRVLEEVCASPQGPGALFVQSHLEDLKKTLLDSLRSTSSPAKRPRLKCLLHIVRKLSAEHKEFITALIPEVILCTKEVSVGARKNAFALLVEMGHAFLRFGSNQEEALQCYLVLIYPGLVGAVTMVSCSILALTHLLFEFKGLMGTSTVEQLLENVCLLLASRTRDVVKSALGFIKVAVTVMDVAHLAKHVQLVMEAIGKLSDDMRRHFRMKLRNLFTKFIRKFGFELVKRLLPEEYHRVLVNIRKAEARAKRHRALSQAAVEEEEEEEEEEEPAQGKGDSIEEILADSEDEEDNEEEERSRGKEQRKLARQRSRAWLKEGGGDEPLNFLDPKVAQRVLATQPGPGRGRKKDHGFKVSADGRLIIREEADGNKMEEEEGAKGEDEEMADPMEDVIIRNKKHQKLKHQKEAEEEELEIPPQYQAGGSGIHRPVAKKAMPGAEYKAKKAKGDVKKKGRPDPYAYIPLNRSKLNRRKKMKLQGQFKGLVKAARRGSQVGHKNRRKDRRP"

# More lines, now with the values behind:
row,Binder,binding
1,"DEAH-box helicase 37 (DHX37) (protein, UniProt Q8IY37 1-1157) MGKLRRRYNIKGRQQAGPGPSKGPPEPPPVQLELEDKDTLKGVDASNALVLPGKKKKKTKAPPLSKKEKKPLTKKEKKVLQKILEQKEKKSQRAEMLQKLSEVQASEAEMRLFYTTSKLGTGNRMYHTKEKADEVVAPGQEKISSLSGAHRKRRRWPSAEEEEEEEEESESELEEESELDEDPAAEPAEAGVGTTVAPLPPAPAPSSQPVPAGMTVPPPPAAAPPLPRALAKPAVFIPVNRSPEMQEERLKLPILSEEQVIMEAVAEHPIVIVCGETGSGKTTQVPQFLYEAGFSSEDSIIGVTEPRRVAAVAMSQRVAKEMNLSQRVVSYQIRYEGNVTEETRIKFMTDGVLLKEIQKDFLLLRYKVVIIDEAHERSVYTDILIGLLSRIVTLRAKRNLPLKLLIMSATLRVEDFTQNPRLFAKPPPVIKVESRQFPVTVHFNKRTPLEDYSGECFRKVCKIHRMLPAGGILVFLTGQAEVHALCRRLRKAFPPSRARPQEKDDDQKDSVEEMRKFKKSRARAKKARAEVLPQINLDHYSVLPAGEGDEDREAEVDEEEGALDSDLDLDLGDGGQDGGEQPDASLPLHVLPLYSLLAPEKQAQVFKPPPEGTRLCVVATNVAETSLTIPGIKYVVDCGKVKKRYYDRVTGVSSFRVTWVSQASADQRAGRAGRTEPGHCYRLYSSAVFGDFEQFPPPEITRRPVEDLILQMKALNVEKVINFPFPTPPSVEALLAAEELLIALGALQPPQKAERVKQLQENRLSCPITALGRTMATFPVAPRYAKMLALSRQHGCLPYAITIVASMTVRELFEELDRPAASDEELTRLKSKRARVAQMKRTWAGQGASLKLGDLMVLLGAVGACEYASCTPQFCEANGLRYKAMMEIRRLRGQLTTAVNAVCPEAELFVDPKMQPPTESQVTYLRQIVTAGLGDHLARRVQSEEMLEDKWRNAYKTPLLDDPVFIHPSSVLFKELPEFVVYQEIVETTKMYMKGVSSVEVQWIPALLPSYCQFDKPLEEPAPTYCPERGRVLCHRASVFYRVGWPLPAIEVDFPEGIDRYKHFARFLLEGQVFRKLASYRSCLLSSPGTMLKTWARLQPRTESLLRALVAEKADCHEALLAAWKKNPKYLLAEYCEWLPQAMHPDIEKAWPPTTVH",binds
2,"bystin-like (BYSL) (protein, UniProt Q13895 1-437) MPKFKAARGVGGQEKHAPLADQILAGNAVRAGVREKRRGRGTGEAEEEYVGPRLSRRILQQARQQQEELEAEHGTGDKPAAPRERTTRLGPRMPQDGSDDEDEEWPTLEKAATMTAAGHHAEVVVDPEDERAIEMFMNKNPPARRTLADIIMEKLTEKQTEVETVMSEVSGFPMPQLDPRVLEVYRGVREVLSKYRSGKLPKAFKIIPALSNWEQILYVTEPEAWTAAAMYQATRIFASNLKERMAQRFYNLVLLPRVRDDVAEYKRLNFHLYMALKKALFKPGAWFKGILIPLCESGTCTLREAIIVGSIITKCSIPVLHSSAAMLKIAEMEYSGANSIFLRLLLDKKYALPYRVLDALVFHFLGFRTEKRELPVLWHQCLLTLVQRYKADLATDQKEALLELLRLQPHPQLSPEIRRELQSAVPRDVEDVPITVE",binds
